These are yes or no findings as the source states them, for the method shown. In cells and extracts the contact can be indirect. Binding calls can cover weak binding; strength is not graded here.
What follows are substances tested against endogenous PP2A/C (human (endogenous in HeLa)) (UniProt P67775) (assay: co-IP; endogenous proteins; HeLa, BT549 (also MB231, MB435) cells treated with 100 nM Nocodazole for 5 hours, or HeLa cells released from a double thymidine block; NP-40 lysis buffer, antibody 4 °C 16 hours, Protein A/G beads, Western blot).

Amino acid sequences for entries named in this document (tags omitted). A change or cut given only in a name is not applied to a line headed by its entry.
UniProt P67775: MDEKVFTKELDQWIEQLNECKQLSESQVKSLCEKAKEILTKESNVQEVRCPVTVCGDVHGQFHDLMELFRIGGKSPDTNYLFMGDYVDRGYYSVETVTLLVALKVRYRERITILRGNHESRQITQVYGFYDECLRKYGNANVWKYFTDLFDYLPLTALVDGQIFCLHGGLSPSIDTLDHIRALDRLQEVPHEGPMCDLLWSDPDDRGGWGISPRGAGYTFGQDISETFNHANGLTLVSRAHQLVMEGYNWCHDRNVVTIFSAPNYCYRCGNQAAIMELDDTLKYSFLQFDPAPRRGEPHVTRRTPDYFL
UniProt P52732: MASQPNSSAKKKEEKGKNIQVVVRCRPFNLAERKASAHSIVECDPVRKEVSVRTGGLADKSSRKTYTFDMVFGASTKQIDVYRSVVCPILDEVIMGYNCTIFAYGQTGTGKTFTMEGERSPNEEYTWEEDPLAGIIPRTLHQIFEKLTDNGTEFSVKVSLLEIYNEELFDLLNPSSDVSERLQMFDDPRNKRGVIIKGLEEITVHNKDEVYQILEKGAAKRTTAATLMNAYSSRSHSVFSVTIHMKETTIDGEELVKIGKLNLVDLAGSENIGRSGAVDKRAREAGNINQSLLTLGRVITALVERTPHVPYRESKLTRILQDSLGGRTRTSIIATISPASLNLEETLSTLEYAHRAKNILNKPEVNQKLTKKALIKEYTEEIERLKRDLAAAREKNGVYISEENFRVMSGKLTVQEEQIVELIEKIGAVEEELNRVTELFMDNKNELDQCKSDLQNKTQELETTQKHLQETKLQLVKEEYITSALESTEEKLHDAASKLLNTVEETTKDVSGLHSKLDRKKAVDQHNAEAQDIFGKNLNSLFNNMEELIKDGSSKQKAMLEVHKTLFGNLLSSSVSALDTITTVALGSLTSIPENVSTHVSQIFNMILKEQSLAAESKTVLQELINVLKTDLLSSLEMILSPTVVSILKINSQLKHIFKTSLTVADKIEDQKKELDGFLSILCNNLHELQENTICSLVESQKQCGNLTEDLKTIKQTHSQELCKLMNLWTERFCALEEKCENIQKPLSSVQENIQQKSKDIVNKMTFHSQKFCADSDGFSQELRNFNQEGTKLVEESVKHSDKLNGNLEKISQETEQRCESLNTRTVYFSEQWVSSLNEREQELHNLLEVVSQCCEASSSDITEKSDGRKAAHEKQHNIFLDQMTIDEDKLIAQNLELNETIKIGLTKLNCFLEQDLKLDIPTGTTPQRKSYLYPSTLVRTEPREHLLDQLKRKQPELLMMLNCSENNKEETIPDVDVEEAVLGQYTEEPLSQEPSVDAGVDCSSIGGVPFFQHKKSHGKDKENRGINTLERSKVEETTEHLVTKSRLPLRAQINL

| binding | Substance |
| --- | --- |
| binds | endogenous EG5 (KIF11) (from UniProt P52732 1-1056) |

Each substance was assayed against His-tagged PP2A/Cα (human) (UniProt P67775) (assay: pull-down; FLAG-tagged EG5 and fragments expressed in HEK293T cells incubated with purified His-PP2A/Cα conjugated to Ni-NTA agarose; anti-FLAG Western blot; only the target purified).

| binding | Substance |
| --- | --- |
| no binding | FLAG-tagged EG5 fragment Head (1~350aa) (from UniProt P52732 1-350) (domain or fragment) |
| no binding | FLAG-tagged EG5 fragment Stalk (351~550aa) (from UniProt P52732 351-550) (domain or fragment) |
| no binding | FLAG-tagged EG5 fragment Tail-1 (551aa~750aa) (from UniProt P52732 551-750) (domain or fragment) |
| binds | FLAG-tagged EG5 fragment Tail-2 (751~1057aa) (from UniProt P52732 751-1056) (domain or fragment) |
| binds | FLAG-tagged full length EG5 expressed in HEK293T (from UniProt P52732 1-1056) |

— article PMC5431654
